Laboratory results: PubChem BioAssay AID276 (DTP/NCI, 2004)
The list shows only some results of the screen, not a fair sample: it is rich in T/C values a quarter to a half above the control, in often repeated tests (any T/C) and in doses without a T/C. Further doses and runs are listed elsewhere. T/C: endpoint of the treated group in % of that of the vehicle group. Some entries give survivors of the animals treated and no T/C: the source holds a T/C of zero for them, seemingly a mark for toxic or unscored doses. Some doses without a T/C left all or most animals alive at the check, yet need not have been tolerated: survival well below the control is almost never listed, so the zero probably covers shortened survival too. Survivors were counted at the toxicity check, usually on the fifth day, unless a day is given; later deaths do not show. Schedules are NCI's codes, taken here to give the interval after Q, in days (D) or hours (H), and the number of doses after X. Some doses were run more than once; the results are listed from low to high. For survival time, the PubChem record calls one and a half times the control and up active, and a quarter to a half above the control has no call in these data; cut-offs in other NCI protocols can differ.

Tested on: B6C3F1 mice, Lewis lung carcinoma iv, survival T/C
Assay: NCI In Vivo Anticancer Drug Screen. Data for tumor model Lewis Lung Carcinoma (intravenous) in B6C3F1 mice
Settings: T/C endpoint: median survival time, schedule: Q01DX009 (ip), higher T/C = longer survival
Method in brief: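 T/C ratio derived from survival of compound-treated versus vehicle-treated mice bearing transplantable tumors.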

[1] = dose: 20.0 mg/kg/injection, vehicle: Klucel (hydroxypropylcellulose) (HPC)
[2] = dose: 12.5 mg/kg/injection, vehicle: Klucel (hydroxypropylcellulose) (HPC)
[3] = dose: 25.0 mg/kg/injection, vehicle: Klucel (hydroxypropylcellulose) (HPC)
[4] = dose: 400.0 mg/kg/injection, vehicle: saline
[5] = dose: 100.0 mg/kg/injection, vehicle: saline with Tween-80
[6] = dose: 12.5 mg/kg/injection, vehicle: saline with Tween-80
[7] = dose: 25.0 mg/kg/injection, vehicle: saline with Tween-80
[8] = dose: 50.0 mg/kg/injection, vehicle: saline with Tween-80
[9] = dose: 200.0 mg/kg/injection, vehicle: saline with Tween-80
[10] = dose: 400.0 mg/kg/injection, vehicle: saline with Tween-80
[11] = dose: 512.0 mg/kg/injection, vehicle: saline with Tween-80
[12] = dose: 40.0 mg/kg/injection, vehicle: Klucel (hydroxypropylcellulose) (HPC)
[13] = dose: 50.0 mg/kg/injection, vehicle: water
[14] = dose: 100.0 mg/kg/injection, vehicle: water
[15] = dose: 100.0 mg/kg/injection, vehicle: saline
[16] = dose: 200.0 mg/kg/injection, vehicle: saline
[17] = dose: 50.0 mg/kg/injection, vehicle: Klucel (hydroxypropylcellulose) (HPC)
[18] = dose: 50.0 mg/kg/injection, vehicle: saline

For CC(=O)OC1C(O)C(C)OC(OC2C(OC(=O)C3CCC4C(C3)OC3(CC(OC(=O)/C=C/c5ccccc5)C(C)CO3)C43CO3)OC(C)C(O)C2OC(C)=O)C1O (stereo unspecified), the survivor count (dose: 32.0 mg/kg/injection, vehicle: distilled water + Tween-80) was 9 of 10.
CC(=O)OCC1OC([S-])C(OC(C)=O)C(OC(C)=O)C1OC(C)=O.CC[PH+](CC)CC.CC[PH+](CC)CC.[Au].[Au] (stereo unspecified) was tested, and the survivor count [1] was 0 of 10.
With NC(=S)N/N=C\c1ncccc1OCc1cccc(N)c1 the survivor count (dose: 400.0 mg/kg/injection, vehicle: distilled water + Tween-80) was 10 of 10.
With COc1c(C=O)c2c(c(OC)c1OC)-c1ccc(OC)c(=O)cc1[C@@H](NC(C)=O)CC2 the survivor count [2] was 6 of 10 and the survivor count [3] was 5 of 10.
For CC(=O)CC(=O)CCC(=O)O, the survivor count [4] was 1 of 10.
In the case of Cc1cc(=O)n2c3c(c4c(cc13)c(CN(C)C)cc(=O)n4C)OC2, the survivor count [5] is reported as 8 of 10.
In the case of CCCCCCCCCCCCCCCCCCCCCC(=O)Nc1ccn(C2OC(CO)C(O)C2O)c(=O)n1 (stereo unspecified), the T/C [6] is reported as 141 % of control, the survivor count [7] is reported as 10 of 10 and the survivor count [8] is reported as 10 of 10. For the same compound, the survivor count [5] was 9 of 10, the survivor count [9] was 8 of 10 and the survivor count [10] was 1 of 10.
In the case of O=c1[nH]cccc1O, the survivor count (dose: 128.0 mg/kg/injection, vehicle: saline with Tween-80) is reported as 10 of 10 and the survivor count [11] is reported as 6 of 10.
With CCCC(=O)OCc1cc(=O)n(C)c2c3c4c(cc12)c(C)cc(=O)n4CO3 the T/C [3] was 127 % of control and the survivor count (dose: 100.0 mg/kg/injection, vehicle: Klucel (hydroxypropylcellulose) (HPC)) was 9 of 10.
In the case of CN(C)N=Nc1cccc(C(N)=O)c1, the T/C [1] is reported as 140 % of control, the T/C [12] is reported as 125 and 142 % of control and the survivor count (dose: 80.0 mg/kg/injection, vehicle: Klucel (hydroxypropylcellulose) (HPC)) is reported as 10 of 10. The survivor count (dose: 160.0 mg/kg/injection, vehicle: Klucel (hydroxypropylcellulose) (HPC)) was 8 of 10.
With NC(=S)c1cn(C2OC(CO)C(O)C2O)c2ncnc(N)c12 (stereo unspecified) the survivor count (dose: 10.0 mg/kg/injection, vehicle: suspension in saline) was 7 of 10.
With CCCC(=O)OCC1OC(n2cnc3c(=S)nc[nH]c32)C(OC(=O)CCC)C1OC(=O)CCC (stereo unspecified) the survivor count [5] was 10 of 10.
With C=C(C)[C@@H]1CCc2c(O)c(O)c(=O)cc(C)c2C1 the survivor count [2] was 8 of 10.
Cc1cc(NCCN(C(C)C)C(C)C)nc(/N=C(\N)Nc2ccc(Cl)c(C(F)(F)F)c2)n1 was tested, and the survivor count [12] was 9 of 10 and 10 of 10.
C1CC[N-]CC1.[Cl][Pt+2][Cl].[NH-]C1CC1 was tested, and the survivor count (dose: 3.12 mg/kg/injection, vehicle: water) was 10 of 10, the survivor count (dose: 25.0 mg/kg/injection, vehicle: water) was 10 of 10 and the survivor count [13] was 7 of 10. The survivor count [14] was 0 of 10.
With O=C(CCCN1CCC(C(O)c2ccc(F)cc2)CC1)c1ccc(F)cc1 (stereo unspecified) the survivor count [7] was 10 of 10 and the survivor count [8] was 8 of 10.
In the case of Cc1cc(N2C(=O)CCSC2=S)ccc1Cl, the survivor count (dose: 400.0 mg/kg/injection, vehicle: Klucel (hydroxypropylcellulose) (HPC)) is reported as 9 of 10.
In the case of CO[C@H]1Nc2c(ccc(C)c2O)C(=O)N2C=C(/C=C/C(N)=O)C[C@@H]12, the survivor count (dose: 0.5 mg/kg/injection, vehicle: saline + alcohol) is reported as 10 of 10 and the survivor count (dose: 1.0 mg/kg/injection, vehicle: saline + alcohol) is reported as 2 of 10.
For CCn1cnc2c(=S)nc[nH]c21, the survivor count [15] was 10 of 10 and the survivor count [16] was 8 of 10.
In the case of CCC(C)Nc1ccc(N)cc1 (stereo unspecified), the survivor count (dose: 24.0 mg/kg/injection, vehicle: Klucel (hydroxypropylcellulose) (HPC)) is reported as 2 of 10.
COC12C(COC(=O)NCCO)C3=C(C(=O)C(C)=C(N)C3=O)N1CC1NC12 (stereo unspecified) was tested, and the T/C [2] was 132 % of control, the survivor count [3] was 10 of 10 and the survivor count [17] was 10 of 10.
CCOC(=O)Nc1cc2c(c(N)n1)N=C(c1ccc(Cl)cc1Cl)CN2 was tested, and the survivor count [7] was 9 of 10 and the survivor count [8] was 0 of 10.
With Cc1[nH]ccc(=O)c1O the survivor count [11] was 8 of 10.
For Clc1ccc(C2SC=Cc3ccccc32)cc1 (stereo unspecified), the survivor count (dose: 800.0 mg/kg/injection, vehicle: Klucel (hydroxypropylcellulose) (HPC)) was 1 of 10.
In the case of C=C1N(C)c2ccccc2C1(C)C, the survivor count [6] is reported as 10 of 10, the survivor count [7] is reported as 6 of 10 and the survivor count [8] is reported as 8 of 10. For the same compound, the survivor count [5] was 5 of 10 and 8 of 10, the survivor count [9] was 0 of 10 and the survivor count [10] was 0 of 10.
In the case of COC1=C(C)C(=O)C2=C(C1=O)C1C3CC4=C(C(=O)C(OC)=C(C)C4=O)C(CNC(=O)C(C)=O)N3C(C#N)C(C2)N1C (stereo unspecified), the T/C (dose: 2.0 mg/kg/injection, vehicle: Klucel (hydroxypropylcellulose) (HPC)) is reported as 134 % of control and the survivor count (dose: 4.0 mg/kg/injection, vehicle: Klucel (hydroxypropylcellulose) (HPC)) is reported as 0 of 10.
N[C@@H](Cc1ccc(N(CCCl)CCCl)cc1)C(=O)O was tested, and the T/C (dose: 4.0 mg/kg/injection, vehicle: saline) was 125 % of control and the survivor count (dose: 8.0 mg/kg/injection, vehicle: saline) was 10 of 10.
With CNC(=O)Oc1ccc[nH]c1=O the survivor count [11] was 7 of 10.
For CC(=O)Nc1ccc(Nc2ccc(C(=C3C=CC(=[N+](C)CCC#N)C=C3)c3ccc(N(C)CCC#N)cc3)cc2)cc1, the survivor count [6] was 10 of 10, the survivor count [7] was 10 of 10 and the survivor count [8] was 8 of 10. For the same compound, the survivor count [5] was 1 of 10, the survivor count [9] was 0 of 10 and the survivor count [10] was 0 of 10.
For O=NN(CCCl)C(=O)Oc1ccc(OC(=O)N(CCCl)N=O)cc1, the survivor count (dose: 6.25 mg/kg/injection, vehicle: Klucel (hydroxypropylcellulose) (HPC)) was 10 of 10, the survivor count (dose: 8.0 mg/kg/injection, vehicle: Klucel (hydroxypropylcellulose) (HPC)) was 10 of 10 and the survivor count [2] was 10 of 10. For the same compound, the survivor count [3] was 8 of 10 and the survivor count [17] was 10 of 10.
For C/C(=N\NC(=S)N1CCN(c2ccccn2)CC1)c1ccccn1, the survivor count [13] was 5 of 10 and the survivor count [14] was 0 of 10.
With CCc1ncnc2cc(OCC3CO3)c(OC)cc12 (stereo unspecified) the T/C [18] was 140 % of control, the survivor count [18] was 6 of 6 and the survivor count [15] was 10 of 10 and 6 of 6.
In the case of CCC(C(=O)O)C(=O)O.[NH-]CC1CCCC[N-]1.[Pt+2], the T/C [15] is reported as 126 % of control, the survivor count [16] is reported as 10 of 10 and the survivor count (dose: 200.0 mg/kg/injection, vehicle: suspension in saline) is reported as 3 of 10. For the same compound, the survivor count [4] was 0 of 10 and the survivor count (dose: 400.0 mg/kg/injection, vehicle: suspension in saline) was 0 of 10.
